Data as given in publication PMC4821554.
Results are given in words; binding and its absence hold for the method and conditions named. Binding seen in cells or lysates may run through a third protein. Binding can be weak; no strength is given.

The chains behind the UniProt entries cited, without tags or fusion partners. Where a name states a change or a piece, a line headed by the entry shows the natural chain unless it says otherwise.
UniProt P43354: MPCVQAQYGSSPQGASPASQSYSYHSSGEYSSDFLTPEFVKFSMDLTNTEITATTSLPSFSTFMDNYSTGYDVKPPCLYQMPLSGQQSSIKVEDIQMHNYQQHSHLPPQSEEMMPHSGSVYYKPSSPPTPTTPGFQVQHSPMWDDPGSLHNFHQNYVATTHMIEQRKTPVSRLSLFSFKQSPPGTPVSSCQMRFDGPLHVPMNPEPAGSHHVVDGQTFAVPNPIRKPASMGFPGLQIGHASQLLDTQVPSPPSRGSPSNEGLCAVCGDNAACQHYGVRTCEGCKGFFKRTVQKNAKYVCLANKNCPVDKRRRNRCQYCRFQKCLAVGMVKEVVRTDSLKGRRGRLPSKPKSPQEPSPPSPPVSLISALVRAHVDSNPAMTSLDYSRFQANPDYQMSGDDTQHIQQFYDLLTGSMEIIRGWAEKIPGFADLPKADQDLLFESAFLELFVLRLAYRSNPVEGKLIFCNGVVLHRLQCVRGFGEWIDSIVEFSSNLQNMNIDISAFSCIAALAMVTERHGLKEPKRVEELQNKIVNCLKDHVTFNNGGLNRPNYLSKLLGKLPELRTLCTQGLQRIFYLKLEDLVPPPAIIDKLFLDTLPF
UniProt P35222: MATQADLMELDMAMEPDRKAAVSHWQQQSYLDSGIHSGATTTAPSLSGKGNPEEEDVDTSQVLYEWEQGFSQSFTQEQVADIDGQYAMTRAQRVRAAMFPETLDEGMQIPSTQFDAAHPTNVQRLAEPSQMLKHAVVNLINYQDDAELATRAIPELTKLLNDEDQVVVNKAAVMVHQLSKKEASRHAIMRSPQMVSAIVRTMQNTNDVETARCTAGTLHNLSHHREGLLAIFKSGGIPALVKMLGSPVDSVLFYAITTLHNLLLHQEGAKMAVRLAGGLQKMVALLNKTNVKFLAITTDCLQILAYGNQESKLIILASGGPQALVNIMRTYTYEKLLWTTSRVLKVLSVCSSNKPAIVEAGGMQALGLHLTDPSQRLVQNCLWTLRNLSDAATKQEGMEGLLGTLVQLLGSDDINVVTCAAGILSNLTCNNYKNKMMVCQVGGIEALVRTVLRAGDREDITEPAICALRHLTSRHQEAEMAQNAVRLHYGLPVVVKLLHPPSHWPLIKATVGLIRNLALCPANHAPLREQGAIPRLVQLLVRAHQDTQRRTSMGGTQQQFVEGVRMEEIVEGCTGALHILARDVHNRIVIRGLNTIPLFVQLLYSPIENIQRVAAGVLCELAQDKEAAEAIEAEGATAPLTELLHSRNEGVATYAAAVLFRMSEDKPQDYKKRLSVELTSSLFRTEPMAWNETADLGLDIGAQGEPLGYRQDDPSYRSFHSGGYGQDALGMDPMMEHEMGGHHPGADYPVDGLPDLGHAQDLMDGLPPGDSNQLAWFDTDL
UniProt Q9WU82: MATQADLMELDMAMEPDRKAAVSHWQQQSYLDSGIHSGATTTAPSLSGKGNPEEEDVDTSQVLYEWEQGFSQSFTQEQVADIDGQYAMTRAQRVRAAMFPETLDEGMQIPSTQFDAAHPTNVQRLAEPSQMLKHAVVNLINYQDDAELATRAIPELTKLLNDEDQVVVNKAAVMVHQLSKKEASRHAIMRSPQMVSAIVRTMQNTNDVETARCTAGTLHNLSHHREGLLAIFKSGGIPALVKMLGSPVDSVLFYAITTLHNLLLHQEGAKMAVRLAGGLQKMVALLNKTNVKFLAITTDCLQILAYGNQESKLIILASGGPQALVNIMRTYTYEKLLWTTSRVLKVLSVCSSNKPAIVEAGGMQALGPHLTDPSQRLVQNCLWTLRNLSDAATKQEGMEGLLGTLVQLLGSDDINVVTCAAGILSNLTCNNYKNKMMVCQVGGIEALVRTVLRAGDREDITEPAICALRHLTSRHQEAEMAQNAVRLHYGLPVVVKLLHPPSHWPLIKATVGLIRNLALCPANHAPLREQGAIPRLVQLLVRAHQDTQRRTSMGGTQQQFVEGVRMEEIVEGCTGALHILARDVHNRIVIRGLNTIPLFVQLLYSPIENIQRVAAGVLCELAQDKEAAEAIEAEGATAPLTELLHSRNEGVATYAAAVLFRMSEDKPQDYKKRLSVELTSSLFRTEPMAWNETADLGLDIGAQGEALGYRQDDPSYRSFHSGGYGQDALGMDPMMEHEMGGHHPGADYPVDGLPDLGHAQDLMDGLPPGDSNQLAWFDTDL

Columns and labels:
[1] = target: GST-fused AF1 domain of Nurr1 (human) (UniProt P43354); assay: pull-down; GST-fused Nurr1 domains on glutathione-Sepharose beads incubated with nuclear proteins of PC12 cells transfected with β-catenin vectors for 24 hours; wash 50 mM Tris-HCl pH 7.3, 150 mM NaCl, 3 mM MgCl2, 1 mM EDTA, 1 mM DTT, 0.5% Triton X-100; only the target purified
[2] = target: GST-fused AF1 domain of Nurr1 (human) (UniProt P43354); assay: pull-down; GST-fused Nurr1 domains with midbrain of rat; preparation of the sample not told; only the target purified

Row | binding [1] | binding [2] | Substance
1 | binds | – | β-catenin (full-length human), expressed from pShuttle-IRES-hrGFP-2 (from UniProt P35222 1-781)
2 | – | binds | β-catenin of the midbrain of rat (from UniProt Q9WU82 1-781)
